Measurements as given in patent US20250381281A1 (priority 2018, published 2025).

Test: peptide synthesis
Settings: conjugation step

Substance | conjugation yield | final HPLC purity (254 nm) | crude HPLC purity (254 nm)
DBCO-2-Amino-1,3-bis(carboxylethoxy)propane(Ahx-F′10)2 | 26.8% yield | 83.4% AUC at 254 nm | –
DBCO-2-Amino-1,3-bis(carboxylethoxy)propane(Ahx-W5)2 | 30.8% yield | – | –
DBCO-Ahx-F′5 | 41.5% yield | >95% AUC at 254 nm | –
DBCO-Ahx-F′10 | 50.6% yield | – | –
DBCO-Ahx-F′20 | 20.5% yield | 94.4% AUC at 254 nm | –
DBCO-Ahx-W5 | 71.9% yield | – | 92.6% AUC at 254 nm
